Reference: PubChem BioAssay AID504784 (Drosophila RNAi Screening Center, 2011)
In all, the deposit lists about 17,000 reagents; shown is a random part of those that have a named target and a result. 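Each column is one replicate's B-score; the combined score over replicates was not deposited, so single values may mislead.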 A plus sign joins genes that one reagent is predicted to hit. Not all columns of the deposit are shown.

Purpose: 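Fly genes whose silencing alters how much lipid cells keep in droplets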 (primary screen)
System: Drosophila Kc167 embryonic cells
Knock-down reagent: long dsRNA against Drosophila genes, about 250 ng dsRNA per well
Duration: 4 days
Conditions: cells fed 400 µM oleic acid bound to BSA
Read-out: 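Cells imaged and segmented; ratio of lipid droplet area to nuclear area, log-transformed, then normalised as a B-score over the screen; higher means more stored lipid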
Scale: droplet/nuclear area B-score: higher = more stored lipid (overstorage)

For CG12934 (GeneID 36124) [DRSC06247] the deposit lists droplet/nuclear area B-score, replicate 1 = -2.27.
Silencing of comm (GeneID 39717) [DRSC11336] came out at: droplet/nuclear area B-score, replicate 1 = 0.527.
CG18234 (GeneID 40024) [DRSC10309] gave droplet/nuclear area B-score, replicate 1 = -0.00718.
Kah (GeneID 38072) [DRSC07887] scored droplet/nuclear area B-score, replicate 1 = 0.143.
Silencing of Kah (GeneID 38072) [DRSC08515] came out at: droplet/nuclear area B-score, replicate 1 = -0.0946.
CG4278 (GeneID 34970) [DRSC02741] gave droplet/nuclear area B-score, replicate 1 = 0.851.
After knock-down of TyrRII (GeneID 42135) [DRSC15150], the record shows droplet/nuclear area B-score, replicate 1 = 2.69.
CG18249 (GeneID 40964) [DRSC15318] scored droplet/nuclear area B-score, replicate 1 = -2.97.
After knock-down of CG31207 (GeneID 326125) [DRSC21886], the record shows droplet/nuclear area B-score, replicate 1 = -2.04.
For 2mit (GeneID 41616) [DRSC14194], the entry reads droplet/nuclear area B-score, replicate 1 = -0.0991.
After knock-down of 2mit (GeneID 41616) [DRSC15224] the results were droplet/nuclear area B-score, replicate 1 = -0.689.
With knock-down of CG15760 (GeneID 32324) [DRSC19725], the record shows droplet/nuclear area B-score, replicate 1 = 0.902.
Against uex (GeneID 5740320) [DRSC20786], the entry reads droplet/nuclear area B-score, replicate 1 = -0.546.
After knock-down of Cat (GeneID 40048) [DRSC11110], the screen gave droplet/nuclear area B-score, replicate 1 = -0.994.
Depletion of Cda4 (GeneID 33144) [DRSC20623] came out at: droplet/nuclear area B-score, replicate 1 = -0.49.
Against Cda4 (GeneID 33144) [DRSC20641] the deposit lists droplet/nuclear area B-score, replicate 1 = 0.0682.
Knock-down of Cda4 (GeneID 33144) [DRSC20642] gave: droplet/nuclear area B-score, replicate 1 = 0.132.
CG31698 (GeneID 318888) [DRSC22226] gave droplet/nuclear area B-score, replicate 1 = -0.832.
With knock-down of CG4483 (GeneID 39057) [DRSC10426], the record shows droplet/nuclear area B-score, replicate 1 = 1.9.
With knock-down of CG6000 (GeneID 42851) [DRSC15938] the results were droplet/nuclear area B-score, replicate 1 = 0.21.
Depletion of lmgA + lmgB [DRSC03566] gave: droplet/nuclear area B-score, replicate 1 = -0.261.
After knock-down of odd (GeneID 33583) [DRSC00832], the record shows droplet/nuclear area B-score, replicate 1 = 0.799.
For odd (GeneID 33583) [DRSC23024] the deposit lists droplet/nuclear area B-score, replicate 1 = -0.902.
Silencing of CG7214 (GeneID 34053) [DRSC03028] gave: droplet/nuclear area B-score, replicate 1 = 0.651.
For CG7214 (GeneID 34053) [DRSC21869], the entry reads droplet/nuclear area B-score, replicate 1 = 1.47.
With knock-down of CG13324 (GeneID 36434) [DRSC06361] the results were droplet/nuclear area B-score, replicate 1 = -0.612.
Against CG6481 (GeneID 32843) [DRSC19995] the deposit lists droplet/nuclear area B-score, replicate 1 = -0.373.
Silencing of bves (GeneID 33083) [DRSC20520] resulted in: droplet/nuclear area B-score, replicate 1 = -1.16.
For bves (GeneID 33083) [DRSC20555], the entry reads droplet/nuclear area B-score, replicate 1 = -0.0827.
Knock-down of CG14174 (GeneID 39139) [DRSC10175] resulted in: droplet/nuclear area B-score, replicate 1 = -0.596.
Lsm10 (GeneID 36141) [DRSC06250] gave droplet/nuclear area B-score, replicate 1 = -0.817.
With knock-down of Pos (GeneID 43762) [DRSC15415], the record shows droplet/nuclear area B-score, replicate 1 = 0.999.
Mdr49 (GeneID 36428) [DRSC07466] gave droplet/nuclear area B-score, replicate 1 = 0.208.
For alphaTub84B (GeneID 40848) [DRSC12622] the deposit lists droplet/nuclear area B-score, replicate 1 = 0.396.
Against CG3744 (GeneID 42972) [DRSC15511] the deposit lists droplet/nuclear area B-score, replicate 1 = -0.373.
For Sry-alpha (GeneID 43571) [DRSC16867], the values are droplet/nuclear area B-score, replicate 1 = 3.39.
Depletion of CG30414 (GeneID 37705) [DRSC04372] gave: droplet/nuclear area B-score, replicate 1 = -3.4.
Against spartin (GeneID 40582) [DRSC12187], the entry reads droplet/nuclear area B-score, replicate 1 = -0.409.
Depletion of Veneno (GeneID 41000) [DRSC16537] resulted in: droplet/nuclear area B-score, replicate 1 = 0.0713.
CG31211 (GeneID 41443) [DRSC14953] gave droplet/nuclear area B-score, replicate 1 = -0.078.
Knock-down of CG31211 (GeneID 41443) [DRSC15344] came out at: droplet/nuclear area B-score, replicate 1 = -0.637.
After knock-down of CG31211 (GeneID 41443) [DRSC21478] the results were droplet/nuclear area B-score, replicate 1 = -0.917.

Not a retest: an excerpt of the list.
bves (GeneID 33083) [DRSC20520] | droplet/nuclear area B-score, replicate 1: -1.16
bves (GeneID 33083) [DRSC20555] | droplet/nuclear area B-score, replicate 1: -0.0827
CG14174 (GeneID 39139) [DRSC10175] | droplet/nuclear area B-score, replicate 1: -0.596
Lsm10 (GeneID 36141) [DRSC06250] | droplet/nuclear area B-score, replicate 1: -0.817
Pos (GeneID 43762) [DRSC15415] | droplet/nuclear area B-score, replicate 1: 0.999
